Values of other authors as cited in patent US12295957B2, “Ascorbic acid and quinone compounds in combination with an antiparasitic agent for treating a parasitic disease” (IC-MedTech Corp., priority 2018, dated 2025).
Some of these results come from one statement about several compounds together.

Conditions: people treated for Chagas disease; cited from earlier work

In the case of `O=C(Cn1ccnc1[N+](=O)[O-])NCc1ccccc1` [benznidazole], the “people with temporary side effects (skin disorders, brain toxicity, digestive system irritation)” value is listed as “up to 40%”.
